These are yes or no findings as the source states them, for the method shown. Binding seen in cells or lysates may run through a third protein. Here binding means that the protein was enriched with, or labelled near, the bait; the list need not be complete. For some assays here: Sequences can lack the tags named with a protein.
T1: Drs1 R569Q (3x-Strep-Drs1 R569Q) (S. cerevisiae) (UniProt P32892)
T1 sequence: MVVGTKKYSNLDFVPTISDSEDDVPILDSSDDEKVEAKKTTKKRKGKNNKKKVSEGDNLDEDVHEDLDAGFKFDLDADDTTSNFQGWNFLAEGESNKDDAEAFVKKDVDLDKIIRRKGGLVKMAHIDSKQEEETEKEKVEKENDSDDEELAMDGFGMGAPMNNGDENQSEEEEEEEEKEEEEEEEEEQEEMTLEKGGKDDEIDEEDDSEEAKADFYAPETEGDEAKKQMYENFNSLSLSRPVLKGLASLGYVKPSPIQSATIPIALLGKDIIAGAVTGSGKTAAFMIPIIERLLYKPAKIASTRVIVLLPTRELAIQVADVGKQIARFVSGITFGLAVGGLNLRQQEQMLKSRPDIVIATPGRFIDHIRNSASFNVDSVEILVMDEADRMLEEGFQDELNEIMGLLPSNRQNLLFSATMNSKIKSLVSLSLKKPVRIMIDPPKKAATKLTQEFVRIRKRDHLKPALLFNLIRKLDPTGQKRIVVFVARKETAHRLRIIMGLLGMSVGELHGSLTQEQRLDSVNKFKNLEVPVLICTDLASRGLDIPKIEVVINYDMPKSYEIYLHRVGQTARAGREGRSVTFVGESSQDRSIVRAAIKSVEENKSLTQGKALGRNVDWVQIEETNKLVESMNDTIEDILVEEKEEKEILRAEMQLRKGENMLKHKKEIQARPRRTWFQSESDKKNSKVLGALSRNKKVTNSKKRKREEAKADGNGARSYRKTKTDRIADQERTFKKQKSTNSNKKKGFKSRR

T2: Ssf1-3xFLAG-3C-2xProteinA (S. cerevisiae) (UniProt P38789)
T2 sequence: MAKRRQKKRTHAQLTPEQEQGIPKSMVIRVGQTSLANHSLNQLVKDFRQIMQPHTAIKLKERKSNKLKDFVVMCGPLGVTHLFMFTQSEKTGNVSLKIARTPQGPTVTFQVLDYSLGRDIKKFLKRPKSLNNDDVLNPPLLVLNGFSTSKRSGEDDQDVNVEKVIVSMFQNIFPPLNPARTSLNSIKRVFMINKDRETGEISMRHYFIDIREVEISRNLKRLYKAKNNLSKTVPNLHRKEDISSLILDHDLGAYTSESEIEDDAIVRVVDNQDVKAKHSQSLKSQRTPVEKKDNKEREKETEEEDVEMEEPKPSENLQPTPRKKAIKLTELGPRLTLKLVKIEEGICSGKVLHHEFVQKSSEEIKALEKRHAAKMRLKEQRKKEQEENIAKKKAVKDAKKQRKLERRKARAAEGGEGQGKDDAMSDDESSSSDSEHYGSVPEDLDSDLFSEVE

T3: Dbp10 R522V (sfGFP-3xSTREP-bdNEDD8-MYC-dbp10 R522V) (S. cerevisiae) (UniProt Q12389)
T3 sequence: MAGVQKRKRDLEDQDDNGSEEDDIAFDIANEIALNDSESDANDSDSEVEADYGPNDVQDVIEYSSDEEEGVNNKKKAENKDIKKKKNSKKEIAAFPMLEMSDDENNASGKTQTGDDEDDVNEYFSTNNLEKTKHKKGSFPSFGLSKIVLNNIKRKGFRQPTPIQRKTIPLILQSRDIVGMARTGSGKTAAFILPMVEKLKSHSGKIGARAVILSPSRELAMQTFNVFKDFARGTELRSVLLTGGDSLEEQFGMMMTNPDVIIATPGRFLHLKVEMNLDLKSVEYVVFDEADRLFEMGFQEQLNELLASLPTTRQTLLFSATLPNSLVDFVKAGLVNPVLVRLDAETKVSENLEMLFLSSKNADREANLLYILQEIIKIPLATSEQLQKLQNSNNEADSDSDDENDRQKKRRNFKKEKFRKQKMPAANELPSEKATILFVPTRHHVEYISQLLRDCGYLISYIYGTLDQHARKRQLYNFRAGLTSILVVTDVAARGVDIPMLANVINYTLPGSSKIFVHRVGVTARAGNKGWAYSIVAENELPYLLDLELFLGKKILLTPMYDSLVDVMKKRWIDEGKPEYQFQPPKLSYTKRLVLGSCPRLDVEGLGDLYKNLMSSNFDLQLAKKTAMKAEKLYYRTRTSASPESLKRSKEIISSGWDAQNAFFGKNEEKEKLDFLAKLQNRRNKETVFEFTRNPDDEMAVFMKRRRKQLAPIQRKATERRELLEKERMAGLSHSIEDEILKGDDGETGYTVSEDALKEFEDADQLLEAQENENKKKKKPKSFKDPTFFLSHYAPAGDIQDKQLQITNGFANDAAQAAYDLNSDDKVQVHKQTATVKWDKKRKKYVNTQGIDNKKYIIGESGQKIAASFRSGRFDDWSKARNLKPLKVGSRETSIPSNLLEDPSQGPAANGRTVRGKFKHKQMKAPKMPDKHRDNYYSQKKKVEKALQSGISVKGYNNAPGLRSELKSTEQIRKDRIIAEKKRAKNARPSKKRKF


Tests used:
[1] = target: T1, Drs1 R569Q (3x-Strep-Drs1 R569Q) (S. cerevisiae); test: affinity purification with mass spectrometry; purification of pre-60S intermediates from a drs1 R569Q strain by tags on Drs1 R569Q (3x-Strep) and Ssf1 (2x-ProtA); Coomassie-stained 4-20% SDS-PAGE
[2] = target: T2, Ssf1-3xFLAG-3C-2xProteinA (S. cerevisiae); test: as above
[3] = target: T3, Dbp10 R522V (sfGFP-3xSTREP-bdNEDD8-MYC-dbp10 R522V) (S. cerevisiae); test: affinity purification with mass spectrometry; split-tag purification of pre-60S particles from yeast overexpressing dbp10 R522V (β-estradiol, 1 h): IgG Sepharose on Ssf1-2xProteinA, 3C cleavage, then Strep-Tactin on Dbp10 R522V, bdNEDD8 protease elution; 50 mM Bis-Tris-Propane pH 8.0, 125 mM NaCl, 25 mM KCl, 10 mM MgCl2; Coomassie-stained 4-20% SDS-PAGE, bands named by molecular weight, ambiguous bands by mass spectrometry
[4] = target: T2, Ssf1-3xFLAG-3C-2xProteinA (S. cerevisiae); test: as above

binding [1] | binding [2] | binding [3] | binding [4] | Binder
binds | binds | binds | binds | Rlp7 (protein, UniProt P40693 1-322) MSSTQDSKAQTLNSNPEILLRKRRNADRTRIERQELAKKKREEQIKKKRSNKNKFVRAESIVAKTLATSREKERIKRVSILEDKKAKNETQHIASGKDFILKITEKANGAEENSVDLEETEEEEDDGLIREKTTYDGKPALLFIVRVRGPLAVNIPNKAFKILSLLRLVETNTGVFVKLTKNVYPLLKVIAPYVVIGKPSLSSIRSLIQKRGRIIYKGENEAEPHEIVLNDNNIVEEQLGDHGIICVEDIIHEIATMGESFSVCNFFLQPFKLNREVSGFGSLNRLRKIKQREAESRTRQFSNAATAPVIEVDIDSLLAKLN
binds | binds | binds | binds | uL18 (protein, UniProt P26321 1-297) MAFQKDAKSSAYSSRFQTPFRRRREGKTDYYQRKRLVTQHKAKYNTPKYRLVVRFTNKDIICQIISSTITGDVVLAAAYSHELPRYGITHGLTNWAAAYATGLLIARRTLQKLGLDETYKGVEEVEGEYELTEAVEDGPRPFKVFLDIGLQRTTTGARVFGALKGASDGGLYVPHSENRFPGWDFETEEIDPELLRSYIFGGHVSQYMEELADDDEERFSELFKGYLADDIDADSLEDIYTSAHEAIRADPAFKPTEKKFTKEQYAAESKKYRQTKLSKEERAARVAAKIAALAGQQ
binds | binds | binds | binds | Rcm1 (enzyme, UniProt P53972 1-490) MNFYRDATWVLEDIEKEAAKERISGSMQTLVLKSCKRYKLKSNPKHIYAVLDSCWKYKPYLEKVMKKAHILEDIPKKKGKPLFSRLTLLLLCHDLLLSKQKRIQMGKHPIKDYVLKFKSPLHSEMVKLKLKLKVRELSELVLSEDISNDLPPVRWIRINPLKCHPNGETEPVLAELRKKFTLKVDKWSELVPGSIYYDEFIPNLFGIHPSDKITAHELYKHGKIIIQDRASCFPAHILNPGPSDIVIDSCSAPGNKTTHTASYIYPEPPKDNNTRIYAFEKDPERAKVLQKMIKIAGCSPNISVNVGDFTKLATPEKYKDVTCFIVDPSCSGSGIFGRKFFDSFNRRKIDDKDDDGGIVPDEQEEFIAKEELQTRLAKLSSFQFQMVKHAMSFPAAKKIVYSTCSIHAEENERVVIDLLLDKSVREWGWKVAPKREVIPSWPRRGKVEEFEEVFRDGVTYDPQQLAEGCIRALPKSDGGIGFFAVCFERD
binds | binds | binds | binds | Brx1 (protein, UniProt Q08235 1-291) MSSIYKALAGKSKDNKSEKKQGNVKQFMNKQRTLLISSRGVNYRHRHLIQDLSGLLPHSRKEPKLDTKKDLQQLNEIAELYNCNNVLFFEARKHQDLYLWLSKPPNGPTIKFYIQNLHTMDELNFTGNCLKGSRPVLSFDQRFESSPHYQLIKELLVHNFGVPPNARKSKPFIDHVMSFSIVDDKIWVRTYEISHSTKNKEEYEDGEEDISLVEIGPRFVMTVILILEGSFGGPKIYENKQYVSPNVVRAQIKQQAAEEAKSRAEAAVERKIKRRENVLAADPLSNDALFK
binds | binds | binds | binds | Ebp2 (protein, UniProt P36049 1-427) MAKGFKLKELLSHQKEIEKAEKLENDLKKKKSQELKKEEPTIVTASNLKKLEKKEKKADVKKEVAADTEEYQSQALSKKEKRKLKKELKKMQEQDATEAQKHMSGDEDESGDDREEEEEEEEEEEGRLDLEKLAKSDSESEDDSESENDSEEDEDVVAKEESEEKEEQEEEQDVPLSDVEFDSDADVVPHHKLTVNNTKAMKHALERVQLPWKKHSFQEHQSVTSETNTDEHIKDIYDDTERELAFYKQSLDAVLVARDELKRLKVPFKRPLDYFAEMVKSDEHMDKIKGKLIEEASDKKAREEARRQRQLKKFGKQVQNATLQKRQLEKRETLEKIKSLKNKRKHNEIDHSEFNVGVEEEVEGKRFDRGRPNGKRAAKNAKYGQGGMKRFKRKNDATSSADVSGFSSRKMKGKTNRPGKSRRARRF
binds | binds | binds | binds | Rrp1 (protein, UniProt P35178 1-278) METSNFVKQLSSNNRKTRVNALEALKKYLTAKQFKENKQIEFNKLWKGLYYAMWFSDRPRPQQRLANELGELHGLYFDPKDNSTADELTTNDKAFIKFSRGFWKVMCFEWFNIDRYRLDKYLLLIRRVLFSQLKYLQSRNWDKKLVDEYIKKVLRWLPLSGSPKVYTGIPIHIVDILLDEWERLLKDGDEDDEDEENKEEEMRKIAESAKKTPLADVIAIFQDIVADYNNSKVLREKIKEDLFSDTRLVSWDILEGETQHNDSSNESEEEEEEEWKGF
binds | binds | binds | binds | Rpf1 (protein, UniProt P38805 1-295) MALGNEINITNKLKRQEIFADIKHEKNKERHTMRRKRAKEERENPELREQRLKENVTQTIENTRVYDETINKEVEGDEDDLMRYFNSNSNEPPKIFLTTNVNAKKSAYEFANILIEILPNVTFVKRKFGYKLKEISDICIKRNFTDIVIINEDKKKVTGLTFIHLPEGPTFYFKLSSFVEVKKIVGHGRPTSHIPELILNNFQTRLGQTVGRLFQSILPQNPDIEGRQVITLHNQRDYIFFRRHRYVFKDNERVGLQELGPQFTLKLKRLQRGIKEETEWEHKPEMDKEKKKFYL
binds | binds | binds | binds | Nop15 (protein, UniProt P53927 1-220) MVKSTSKTSTKETVTKQPTEEKPIQEKEELALETSSSSSDEEDEKDEDEIEGLAASDDEQSGTHKIKRLNPKKQANEKKSKDKKTLEEYSGIIYVSRLPHGFHEKELSKYFAQFGDLKEVRLARNKKTGNSRHYGFLEFVNKEDAMIAQESMNNYLLMGHLLQVRVLPKGAKIEKLYKYKKRVLVEKGITKPVKQLKDNMKQKHEERIKKLAKSGIEFKW

Reference: paper PMC11024185
